PubChem BioAssay AID652272 – Drosophila RNAi Screening Center, 2013
Assay: 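Finding fly genes that regulate Hedgehog signal transduction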 (primary screen). Cells: Drosophila clone 8 (Cl8) cells. Knock-down reagent: long dsRNA against Drosophila genes. Read-out: 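Firefly light from a Hedgehog-responsive ptc promoter reporter and Renilla reference light, both read on a plate reader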. Direction: firefly Hh reporter signal: higher = more ptc reporter light; Renilla reference signal: higher = more Renilla control light. Active means: 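Hit when the z-score averaged over two replicates is under -2 or over +3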. Meaning of the calls: active = hit: reporter lowered or raised; inactive = not a hit.
The deposit covers about 21,000 reagents; this is a random part of those with a known target gene and a result. Of all reagents, 503 (2.4%) got an active call. 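Raw plate light values, not normalised; calls rest on replicate z-scores that were not deposited; hits include reporter decreases as well as increases.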 The numbers tell different reagents against one gene apart. Names joined by + are all predicted targets of the reagent. Not given: the amount of reagent, the time to read-out.

gene knocked down	dsRNA no.	firefly Hh reporter signal, replicate 1	firefly Hh reporter signal, replicate 2	firefly Hh reporter signal, replicate 3	Renilla reference signal, replicate 1	Renilla reference signal, replicate 2	Call
CG9426	1	89888	33810		3104	3816	inactive
polyph (polyphemus)	1	67065	38610		1543	2704	inactive
Or56a (Odorant receptor 56a)	1	99672	63252		2967	4580	inactive
phol (pleiohomeotic like)	1	68012	33139		3715	1744	inactive
CG4576	1	77482	81801		2199	2300	inactive
CG6870	1	1.32e5	49338		3207	4921	inactive
Mef2 (Myocyte enhancer factor 2)	1	56309	48544		3434	2384	inactive
oc (ocelliless)	1	99018	2.90e5		2835	10699	inactive
CG12560	1	1.05e5	49392		3093	5168	inactive
Lapsyn (Leucine-rich repeat activity-regulated protein at synapses)	1	1.23e5	78502		4688	3320	inactive
CG8543	1	83323	67644		10096	4370	inactive
CycH (Cyclin H)	1	1.60e5	1.81e5		5508	10161	inactive
ear (ENL/AF9-related)	1	1.06e5	92770		4624	4277	inactive
CG13008	1	53168	1.77e5		1600	7270	inactive
CG13008	2	47648	2.27e5		1404	9222	inactive
CG34196	1	1.39e5	1.86e5		4032	8226	inactive
GstD8 (Glutathione S transferase D8)	1	69209	1.61e5		2151	3878	inactive
CG31663	1	8.08e5	4.32e5		41304	15629	inactive
CG31663	2	1.46e5	1.22e5		5794	4748	inactive
CG31663	3	5.44e5	84467		3896	3896	inactive
CG31663	4	1.03e5	95500		2236	2130	inactive
TwdlH (TweedleH)	1	1.30e5	1.12e5		2100	2925	inactive
CycB (Cyclin B)	1	31632	24000		1574	1216	inactive
CG9616	1	42272	85897		710	1965	inactive
Spps (Sp1-like factor for pairing sensitive-silencing)	1	1.03e5	84919		3461	2675	inactive
CG5321	1	1.53e5	3.27e5		4486	11655	inactive
COX6AL2 + Ir75d	1	67861	1.59e5		2136	4091	inactive
Sema2a (Semaphorin 2a)	1	1.06e5	96080		5354	3797	inactive
twf (twinfilin)	1	1.03e5	71624		3659	3121	inactive
CG6733	1	6.69e5	1.08e5		36512	3980	inactive
Argk2 (Arginine kinase 2)	1	41552	55952		89	4528	inactive

Records listed so far whose gene name begins with S or s:
gene knocked down	dsRNA no.	firefly Hh reporter signal, replicate 1	firefly Hh reporter signal, replicate 2	firefly Hh reporter signal, replicate 3	Renilla reference signal, replicate 1	Renilla reference signal, replicate 2	Call
Spps (Sp1-like factor for pairing sensitive-silencing)	1	1.03e5	84919		3461	2675	inactive
Sema2a (Semaphorin 2a)	1	1.06e5	96080		5354	3797	inactive

Additional records follow:
gene knocked down	dsRNA no.	firefly Hh reporter signal, replicate 1	firefly Hh reporter signal, replicate 2	firefly Hh reporter signal, replicate 3	Renilla reference signal, replicate 1	Renilla reference signal, replicate 2	Call
Ibf1 (Insulator binding factor 1)	1	84993	97675		1909	2808	inactive
Axn (Axin)	1	4.78e5	1.10e5	76754	2600	2960	active
Npc2a (Niemann-Pick type C-2a)	1	79234	73543		1928	1655	inactive
CG7744	1	85798	54534		5545	2605	inactive
ClpX (Caseinolytic protease chaperone subunit)	1	74764	87094		3456	3314	inactive
Eh (Eclosion hormone)	1	79616	97464		2032	2789	inactive
CG33337	1	41513	6.12e5	2.21e5	11249	5313	inactive
Prosalpha7 (Proteasome alpha7 subunit)	1	37633	45893		3024	2564	inactive
INPP5E (Inositol polyphosphate 5-phosphatase E)	1	79500	42310	44352	3683	2727	inactive
E(spl)malpha-BFM (Enhancer of split malpha, Bearded family member)	1	4.47e5	73144		24581	2016	inactive
CG5815	1	1.51e5	1.57e5		5642	4233	inactive
Cpr64Aa (Cuticular protein 64Aa)	1	71520	50955		2072	3698	inactive
CG16798	1	1.02e5	53842		2848	5257	inactive
CG31784	1	1.17e5	2.69e5		3296	12243	inactive
CG14598	1	56806	1.21e5		2364	3808	inactive
pdm2 (POU domain protein 2)	1	1.32e5	55149		3317	4725	inactive
pdm2 (POU domain protein 2)	2	1.05e5	28219		2998	2752	inactive
pdm2 (POU domain protein 2)	3	1.33e5	44195		2842	4054	inactive
egr (eiger)	1	1.03e5	70160		2838	5705	inactive
RpS13 (Ribosomal protein S13)	1	20048	19770		1778	1875	active
lncRNA:CR43491 (long non-coding RNA:CR43491)	1	5.21e5	1.50e5		31451	3040	inactive
mrn (marionette)	1	72529	48962		2790	1924	inactive
CG15464 (retired record)	1	1.09e5	5.59e5	3.08e5	3853	3821	inactive
Obp58c (Odorant-binding protein 58c)	1	92082	68872		2320	5296	inactive
cal1 (chromosome alignment defect 1)	1	1.38e5	1.14e5		5856	4407	inactive
Arp2 (Actin-related protein 2)	1	74058	1.79e5		2890	6515	inactive
